The assay concerns the target TRPM1 (mouse (endogenous in mouse retina)) (UniProt Q2TV84). Description: affinity purification with mass spectrometry.

The chains behind the UniProt entries cited, without tags or fusion partners. Residues count along the entry.
UniProt Q2TV84: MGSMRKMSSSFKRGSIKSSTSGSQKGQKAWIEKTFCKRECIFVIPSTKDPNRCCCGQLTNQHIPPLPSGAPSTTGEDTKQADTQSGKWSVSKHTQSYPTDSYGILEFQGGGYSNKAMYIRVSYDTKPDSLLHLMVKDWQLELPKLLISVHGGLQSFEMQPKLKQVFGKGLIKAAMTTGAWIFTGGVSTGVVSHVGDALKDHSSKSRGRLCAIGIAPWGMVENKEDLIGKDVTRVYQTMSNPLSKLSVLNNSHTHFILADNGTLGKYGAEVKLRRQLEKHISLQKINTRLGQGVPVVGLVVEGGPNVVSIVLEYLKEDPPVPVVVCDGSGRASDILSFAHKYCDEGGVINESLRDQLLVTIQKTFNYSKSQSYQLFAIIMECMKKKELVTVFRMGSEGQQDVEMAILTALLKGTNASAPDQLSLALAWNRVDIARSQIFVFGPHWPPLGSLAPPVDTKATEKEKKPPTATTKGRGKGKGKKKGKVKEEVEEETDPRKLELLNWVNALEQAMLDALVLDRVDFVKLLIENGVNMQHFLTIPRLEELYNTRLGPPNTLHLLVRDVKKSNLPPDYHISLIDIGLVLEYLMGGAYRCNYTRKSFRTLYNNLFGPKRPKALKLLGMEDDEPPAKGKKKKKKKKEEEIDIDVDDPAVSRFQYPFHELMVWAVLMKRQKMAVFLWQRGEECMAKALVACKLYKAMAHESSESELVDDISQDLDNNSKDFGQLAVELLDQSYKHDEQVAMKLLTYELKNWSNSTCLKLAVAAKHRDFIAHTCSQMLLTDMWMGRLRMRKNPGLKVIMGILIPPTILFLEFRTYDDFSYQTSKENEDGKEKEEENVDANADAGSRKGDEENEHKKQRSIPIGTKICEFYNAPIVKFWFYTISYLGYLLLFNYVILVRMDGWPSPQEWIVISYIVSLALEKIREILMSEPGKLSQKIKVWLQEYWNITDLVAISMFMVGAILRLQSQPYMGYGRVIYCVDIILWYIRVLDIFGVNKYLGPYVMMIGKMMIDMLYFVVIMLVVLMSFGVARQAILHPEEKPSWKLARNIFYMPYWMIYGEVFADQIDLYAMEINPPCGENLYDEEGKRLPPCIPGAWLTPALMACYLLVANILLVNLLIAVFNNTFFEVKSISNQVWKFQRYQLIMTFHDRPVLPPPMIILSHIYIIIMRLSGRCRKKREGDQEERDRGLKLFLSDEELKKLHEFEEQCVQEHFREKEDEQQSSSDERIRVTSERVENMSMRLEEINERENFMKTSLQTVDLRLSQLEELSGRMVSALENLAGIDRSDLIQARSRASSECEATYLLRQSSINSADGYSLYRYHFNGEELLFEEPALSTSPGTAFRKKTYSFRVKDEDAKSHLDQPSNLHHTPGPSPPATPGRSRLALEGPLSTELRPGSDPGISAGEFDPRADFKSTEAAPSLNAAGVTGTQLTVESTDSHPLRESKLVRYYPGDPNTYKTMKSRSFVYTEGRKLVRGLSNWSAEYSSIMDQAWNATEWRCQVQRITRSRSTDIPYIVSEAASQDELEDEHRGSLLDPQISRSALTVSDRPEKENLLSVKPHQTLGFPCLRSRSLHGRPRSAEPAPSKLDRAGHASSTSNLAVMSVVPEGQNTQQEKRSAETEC
UniProt E9PY61, residues 28-2293: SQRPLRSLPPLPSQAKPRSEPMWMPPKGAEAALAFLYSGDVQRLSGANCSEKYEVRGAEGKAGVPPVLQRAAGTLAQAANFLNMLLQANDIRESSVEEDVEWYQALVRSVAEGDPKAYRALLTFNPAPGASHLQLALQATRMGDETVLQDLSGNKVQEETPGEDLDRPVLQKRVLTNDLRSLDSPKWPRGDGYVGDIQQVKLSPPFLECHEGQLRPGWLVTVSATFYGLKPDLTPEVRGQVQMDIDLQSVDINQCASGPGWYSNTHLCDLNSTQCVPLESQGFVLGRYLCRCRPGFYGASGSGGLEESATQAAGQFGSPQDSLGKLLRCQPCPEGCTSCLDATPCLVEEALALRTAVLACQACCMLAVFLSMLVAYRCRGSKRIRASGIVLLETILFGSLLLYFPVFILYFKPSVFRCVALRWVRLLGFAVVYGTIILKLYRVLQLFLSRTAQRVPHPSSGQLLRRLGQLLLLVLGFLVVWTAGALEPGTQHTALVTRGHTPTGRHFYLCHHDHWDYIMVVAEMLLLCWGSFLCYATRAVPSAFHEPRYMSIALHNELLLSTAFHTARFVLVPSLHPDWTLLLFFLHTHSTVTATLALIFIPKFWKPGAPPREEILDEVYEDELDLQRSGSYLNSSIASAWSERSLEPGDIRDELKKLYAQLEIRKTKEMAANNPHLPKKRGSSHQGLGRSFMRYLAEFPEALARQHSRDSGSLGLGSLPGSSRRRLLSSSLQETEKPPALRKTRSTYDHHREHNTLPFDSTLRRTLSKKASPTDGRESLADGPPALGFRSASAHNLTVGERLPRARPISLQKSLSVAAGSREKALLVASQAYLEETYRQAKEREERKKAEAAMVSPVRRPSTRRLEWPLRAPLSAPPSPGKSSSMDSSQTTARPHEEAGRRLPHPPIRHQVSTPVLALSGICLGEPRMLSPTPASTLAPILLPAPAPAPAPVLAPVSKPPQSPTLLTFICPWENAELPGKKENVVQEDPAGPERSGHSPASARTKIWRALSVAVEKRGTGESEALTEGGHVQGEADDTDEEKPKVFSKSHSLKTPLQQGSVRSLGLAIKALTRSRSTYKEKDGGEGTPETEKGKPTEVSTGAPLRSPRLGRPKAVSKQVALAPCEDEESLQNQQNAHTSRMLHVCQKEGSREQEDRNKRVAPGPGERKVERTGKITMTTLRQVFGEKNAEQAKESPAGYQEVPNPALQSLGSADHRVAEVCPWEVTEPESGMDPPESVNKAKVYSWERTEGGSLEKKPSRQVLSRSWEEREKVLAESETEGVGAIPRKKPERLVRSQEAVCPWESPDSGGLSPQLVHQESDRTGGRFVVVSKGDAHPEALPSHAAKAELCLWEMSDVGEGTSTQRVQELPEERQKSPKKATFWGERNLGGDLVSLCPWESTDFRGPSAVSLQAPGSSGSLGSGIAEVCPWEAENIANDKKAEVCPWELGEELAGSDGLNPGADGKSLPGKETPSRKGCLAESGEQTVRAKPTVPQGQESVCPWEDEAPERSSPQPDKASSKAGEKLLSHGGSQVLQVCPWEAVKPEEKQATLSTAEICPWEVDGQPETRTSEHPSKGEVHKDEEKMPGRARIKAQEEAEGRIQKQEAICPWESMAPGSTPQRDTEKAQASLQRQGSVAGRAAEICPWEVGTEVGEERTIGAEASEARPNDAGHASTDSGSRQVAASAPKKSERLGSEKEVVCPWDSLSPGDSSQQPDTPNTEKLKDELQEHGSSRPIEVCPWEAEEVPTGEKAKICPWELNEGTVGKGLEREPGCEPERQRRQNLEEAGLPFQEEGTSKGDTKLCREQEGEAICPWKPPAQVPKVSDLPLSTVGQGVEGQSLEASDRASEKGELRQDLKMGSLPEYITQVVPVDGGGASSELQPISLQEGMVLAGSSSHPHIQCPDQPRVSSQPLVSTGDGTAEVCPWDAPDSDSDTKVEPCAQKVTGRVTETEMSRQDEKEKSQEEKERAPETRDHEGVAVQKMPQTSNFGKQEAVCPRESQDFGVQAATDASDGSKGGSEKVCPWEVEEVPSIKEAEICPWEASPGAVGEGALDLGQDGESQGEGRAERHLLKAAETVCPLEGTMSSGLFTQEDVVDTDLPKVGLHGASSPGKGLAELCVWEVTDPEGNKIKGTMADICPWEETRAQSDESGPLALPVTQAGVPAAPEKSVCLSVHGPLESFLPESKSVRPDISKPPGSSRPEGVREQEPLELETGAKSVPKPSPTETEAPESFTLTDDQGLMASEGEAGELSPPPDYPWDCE

These are yes or no findings as the source states them, for the method shown. Binding seen in cells or lysates may run through a third protein. These calls come from enrichment with a bait or labelling near it, and not all partners need be listed.

For GPR179 (from UniProt E9PY61 28-2293), the binding entry is reported as “binds”.

B1: LRFN2 (leucine rich repeat and fibronectin type III domain containing 2) (protein, UniProt Q80TG9 21-788)
chain: CPKYCVCQNLSESLGTLCPSKGLLFVPPDIDRRTVELRLGGNFIIHIGRQDFANMTGLVDLTLSRNTISHIQPFSFLDLESLRSLHLDSNRLPSLGEDTLRGLVNLQHLIVNNNQLGGIADDAFEDFLLTLEDLDLSYNNLHGLPWDSVRRMVNLHQLSLDHNLLDHIAEGTFADLQKLARLDLTSNRLQKLPPDPIFARSQASLLTATPFAPPLSFSFGGNPLHCNCELLWLRRLERDDDLETCGSPGSLKGRYFWHIREEEFVCEPPLITQHTHKLLVLEGQAATLKCKAIGDPSPLIHWVAPDDRLVGNSSRTAVYDNGTLDILITTSQDSGPFTCIAANAAGEATATVEVSIVQLPHLSNSTSRMAPPKSRLSDITGSSKTSRGGGGSGAGEPPKSTPERAVLVSDVTTTSALVKWSVSKSAPRVKMYQLQYNCSDDEVLIYRMIPASNKAFVVNNLVSGTGYDLCVLAMWDDTATTLTATNIVGCAQFFTKADYPQCQSMHSQILGGTMILVIGGIIVATLLVFIVILMVRYKVCNHDTPGKMAAATVSNVYSQTNGSQPPPLGGIPVGQLPQAPPKVVVRNELMDFSTSLARACDSSSSSSLGSGEAAGLGRGPWRLPPPAPRPKPSLDRLMGAFASLDLKSQRKEELLDSRTPAGRGAGTSSRGHHSDREPLLGPPATRARSLLPLPLEGKAKRSHSFDMGDFAAAAAAVPGGYSPPRRVSNIWTKRSLSVNGMLLPFEESDLVGARGTFGSSEWVMESTV
For the molecule B1, the binding entry was “binds”.

The values above are taken from doi:10.1101/2023.05.24.542135.
